Amino acid sequences for entries named in this document (tags omitted). A change or cut given only in a name is not applied to a line headed by its entry.
UniProt P11473: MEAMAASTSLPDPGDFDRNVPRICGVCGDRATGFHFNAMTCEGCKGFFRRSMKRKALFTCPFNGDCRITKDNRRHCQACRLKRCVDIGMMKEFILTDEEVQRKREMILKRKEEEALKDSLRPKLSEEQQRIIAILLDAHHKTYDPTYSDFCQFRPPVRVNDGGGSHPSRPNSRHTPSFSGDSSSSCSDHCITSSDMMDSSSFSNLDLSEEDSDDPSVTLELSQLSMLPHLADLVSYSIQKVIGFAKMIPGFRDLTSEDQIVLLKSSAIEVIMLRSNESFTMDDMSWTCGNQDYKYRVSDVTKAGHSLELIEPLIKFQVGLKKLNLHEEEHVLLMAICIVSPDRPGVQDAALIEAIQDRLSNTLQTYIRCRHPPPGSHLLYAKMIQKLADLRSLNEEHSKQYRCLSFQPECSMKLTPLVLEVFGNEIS

Out of some 400,000 compounds screened, about 3,700 (0.93%) were called active. The inconclusive results got no clear call from the source; some entries with a clear call stand among them for comparison. Calls follow the shape of the dose curve; as a rule, active = well fitted inhibition curve with a large enough effect; inconclusive = small, poorly fitted or top-dose-only effect, or another doubt; inactive = no such curve, though single readings can be large or run the other way. Potencies beside an inconclusive call are fits to weak or partial responses and may not hold up.
The compounds below were run against Vitamin D3 receptor (Homo sapiens) (UniProt P11473) (assay: Inhibitors of the vitamin D receptor (VDR): qHTS). Conditions: VDR-SRC2-3 peptide fluorescence polarization, 2 h; max response, negative = inhibition: stronger effect = lower value.
Outline: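 Measured by FP: displacement of SRC2-3 coactivator peptide from VDR by library compounds, following a two-hour ambient incubation.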
`Cc1cc(C)c(NC(=O)CCCN2CCCC2)c(C)c1` was tested, and the Potency was inconclusive: 79.4 µM [inhibitor, single point].
In the case of `O=C1/C(=C/c2ccccc2F)SC(=S)N1CC(=O)N1CCCCC1c1cccnc1` (stereo unspecified), the max response, negative = inhibition is reported as inactive: -4.65%.
For `CC(C)(C)c1ccc(-c2csc(NNC3=NCCCCC3)n2)cc1`, the Potency was inconclusive: 50.1 µM [inhibitor, partial curve, poor fit].
For `CCCCC(=O)OC1=C(C(=O)c2ccccc2)N(C)S(=O)(=O)c2ccccc21`, the max response, negative = inhibition was inactive: -13.9%.
For `COCCn1c(=O)sc2ccccc2c1=O`, the Potency was active: 15.8 µM.
In the case of `CCCCCCCCNC(C)C(O)c1ccc(SC(C)C)cc1` (stereo unspecified), the Potency is reported as inconclusive: 89.1 µM [inhibitor, partial curve, poor fit].
`Cc1cc(C)cc(NC(=O)C(NCCN2CCOCC2)c2ccccc2)c1` (stereo unspecified) was tested, and the Potency was inconclusive: 70.8 µM [inhibitor, partial curve, poor fit].
`Cc1ncc(CO)c(/C=N/NC(=S)Nc2cccc(Cl)c2)c1O` was tested, and the Potency was active: 79.4 µM.
`O=C(Oc1oc(-c2ccco2)nc1C=Nc1ccccc1)c1ccoc1` was tested, and the Potency was active: 50.1 µM.
With `COc1ccccc1N1CCN(C(=S)Nc2ccc(S(=O)(=O)N3CCOCC3)cc2)CC1` the max response, negative = inhibition was inactive: -1.44%.
With `O=C(O)c1cc([N+](=O)[O-])ccc1NCCCc1ccccc1` the Potency was inconclusive: 50.1 µM [inhibitor, partial curve].
For `FC(F)(F)c1cnc(-c2cnc(-c3cccnc3)nc2)c(Cl)c1`, the Potency was inconclusive: 56.2 µM [inhibitor, partial curve, poor fit].
`COc1ccc(S(=O)(=O)N(CC(=O)Nc2ccccc2Cl)Cc2ccccc2)cc1` was tested, and the max response, negative = inhibition was inactive: 8.23%.
For `CC(C)(C)OC(=O)n1cccc1/C=C1\c2ccccc2C(=O)N1c1ccccc1`, the max response, negative = inhibition was inactive: -10.8%.
For `Cc1ccc(NNC(=O)c2c(C)noc2C)cc1Cl`, the Potency was inconclusive: 89.1 µM [inhibitor, single point].
With `CC(C)Sc1nc(N2CCOCC2)c2c(c1C#N)CC(C)(C)N(C)C2` the Potency was inconclusive: 28.2 µM [inhibitor, partial curve, poor fit].
`COC(=O)CSc1nc(C)c2c(n1)CCCC2` was tested, and the max response, negative = inhibition was inactive: 4.9%.
With `COc1ccccc1C(=O)Oc1c(Sc2ccccc2)c(C)nn1-c1ccccc1` the max response, negative = inhibition was inactive: -29.9%.
With `O=C(Nc1nccs1)c1sc2cc(Cl)ccc2c1Cl` the max response, negative = inhibition was inactive: 13.1%.
In the case of `Cn1c(=S)c2[nH]c(SCC3CCCO3)nc2n(C)c1=O` (stereo unspecified), the Potency is reported as inconclusive: 89.1 µM [inhibitor, single point].
For `CNC1(c2nnnn2-c2ccccc2C)CCOC(C)(C)C1` (stereo unspecified), the Potency was active: 22.4 µM.

Reference: PubChem BioAssay AID504847 (National Center for Advancing Translational Sciences (NCATS), 2011)
% is scaled to controls: 0 for no effect and ±100 for the full control effect; potency is read from the fitted curve at half-maximal effect.
